Earlier results, collected in patent publication US10239842B2, “Hydrosoluble compounds derived from benzimidazole used in treating fasciolosis” (UNIVERSIDAD NACIONAL AUTONOMA DE MEXICO, priority 2014, dated 2019).
Some entries share one result that the patent states for a list of compounds.

Tested on: Fasciola hepatica
Conditions: sheep; recommended dose rates; second (older) age span in weeks, span not recoverable from the grid; cited from earlier work

**Q.** With `O=[N+]([O-])c1cc(Cl)cc(-c2cc(Cl)cc([N+](=O)[O-])c2O)c1O` [Niclofolan] as the compound, how does the “Efficacy against Fasciola hepatica, second fasciola age span for the drug” value (“Efficacy against Fasciola hepatica” below) read?
**A.** The value was 80-99%.

**Q.** With `Cc1cc(C(C#N)c2ccc(Cl)cc2)c(Cl)cc1NC(=O)c1cc(I)cc(I)c1O` (stereo not shown) [Closantel] as the compound, how does the “Efficacy against Fasciola hepatica” value read?
**A.** Its value is 91-99%.

**Q.** For `O=C(Nc1cc(Cl)cc(Cl)c1O)c1c(O)c(Cl)cc(Cl)c1Cl` [Oxyclozanide], which “Efficacy against Fasciola hepatica” value is on record?
**A.** The value was 80-99%.

**Q.** For `Oc1c(Cl)cc(Cl)cc1Sc1cc(Cl)cc(Cl)c1O` [Bithionol], which “Efficacy against Fasciola hepatica” value is on record?
**A.** Its value is 80-99%.
